This is a selection; strong and weak results do not stand in their true shares. Calls are pooled over several reports, among them a noisy single-well screen. Some of the results follow.
Columns and labels:
Conditions in all cases: stereoisomer not certain
OR52K2 (Homo sapiens) = target: T1, OR52K2 (Homo sapiens) (UniProt Q8NGK3)
T1 sequence (whole entry): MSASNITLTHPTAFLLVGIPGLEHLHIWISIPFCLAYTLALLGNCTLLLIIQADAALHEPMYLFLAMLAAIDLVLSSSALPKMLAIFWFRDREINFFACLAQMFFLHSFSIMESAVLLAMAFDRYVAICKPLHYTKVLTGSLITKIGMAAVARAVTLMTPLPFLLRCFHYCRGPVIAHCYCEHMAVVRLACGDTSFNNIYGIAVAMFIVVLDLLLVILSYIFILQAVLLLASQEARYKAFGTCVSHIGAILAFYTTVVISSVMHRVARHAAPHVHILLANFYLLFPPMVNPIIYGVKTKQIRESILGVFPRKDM
Procedure, shortened: (§1)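 Values were gathered from published papers (main text and supplementary material), with extra details requested from the original authors when needed, and checked for typos and inconsistencies. Each receptor–molecule pair is called responsive (active) if the original authors judged the measured signal statistically different from baseline, and non-responsive (inactive) otherwise. Assay methods varied by source, often transient mammalian cell-line luciferase assays. Recorded details include cell line, G-protein, co-transfected protein and tags.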

OR52N5 (Homo sapiens) = target: T2, OR52N5 (Homo sapiens) (UniProt Q8NH56)
T2 sequence (whole entry): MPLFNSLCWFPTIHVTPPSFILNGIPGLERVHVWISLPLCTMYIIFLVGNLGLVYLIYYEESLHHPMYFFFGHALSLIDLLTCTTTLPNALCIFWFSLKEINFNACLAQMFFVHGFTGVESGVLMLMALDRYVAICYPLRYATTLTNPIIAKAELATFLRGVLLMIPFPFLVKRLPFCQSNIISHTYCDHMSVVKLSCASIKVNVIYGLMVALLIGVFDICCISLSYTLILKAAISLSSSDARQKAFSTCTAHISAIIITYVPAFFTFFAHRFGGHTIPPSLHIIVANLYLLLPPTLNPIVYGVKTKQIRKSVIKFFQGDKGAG
Procedure, shortened: as §1

OR56A1 (Homo sapiens) = target: T3, OR56A1 (Homo sapiens) (UniProt Q8NGH5)
T3 sequence (whole entry): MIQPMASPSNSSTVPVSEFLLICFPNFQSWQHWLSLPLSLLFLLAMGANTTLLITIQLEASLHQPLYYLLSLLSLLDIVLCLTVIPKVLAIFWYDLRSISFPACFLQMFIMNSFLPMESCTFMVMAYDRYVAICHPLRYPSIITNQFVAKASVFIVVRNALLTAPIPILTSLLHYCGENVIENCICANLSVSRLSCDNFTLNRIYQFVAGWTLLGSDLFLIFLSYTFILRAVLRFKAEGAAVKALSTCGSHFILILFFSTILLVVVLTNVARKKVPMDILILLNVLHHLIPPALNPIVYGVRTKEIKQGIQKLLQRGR
Procedure, shortened: as §1

OR56A4 (Homo sapiens) = target: T4, OR56A4 (Homo sapiens) (UniProt Q8NGH8)
T4 sequence (whole entry): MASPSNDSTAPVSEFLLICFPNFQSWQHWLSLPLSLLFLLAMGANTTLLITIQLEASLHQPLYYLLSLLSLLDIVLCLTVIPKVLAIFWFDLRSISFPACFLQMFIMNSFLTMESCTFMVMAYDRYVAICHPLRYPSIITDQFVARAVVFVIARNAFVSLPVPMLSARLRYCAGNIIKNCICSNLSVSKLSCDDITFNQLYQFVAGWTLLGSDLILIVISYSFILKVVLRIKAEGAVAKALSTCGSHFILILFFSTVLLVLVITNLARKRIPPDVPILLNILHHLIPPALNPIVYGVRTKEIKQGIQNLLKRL
Procedure, shortened: as §1

OR56A5 (Homo sapiens) = target: T5, OR56A5 (Homo sapiens) (UniProt P0C7T3)
T5 sequence (whole entry): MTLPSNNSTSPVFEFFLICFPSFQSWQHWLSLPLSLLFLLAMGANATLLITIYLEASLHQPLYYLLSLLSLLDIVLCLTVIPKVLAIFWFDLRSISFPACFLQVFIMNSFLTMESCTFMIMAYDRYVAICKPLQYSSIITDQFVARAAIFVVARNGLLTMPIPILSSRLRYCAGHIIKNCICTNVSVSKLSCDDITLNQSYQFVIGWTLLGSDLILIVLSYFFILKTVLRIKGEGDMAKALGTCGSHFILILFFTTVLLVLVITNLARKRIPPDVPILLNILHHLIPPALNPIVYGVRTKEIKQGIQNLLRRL
Procedure, shortened: as §1

OR5A1 [1] = system: T6, OR5A1
T6 sequence (whole entry): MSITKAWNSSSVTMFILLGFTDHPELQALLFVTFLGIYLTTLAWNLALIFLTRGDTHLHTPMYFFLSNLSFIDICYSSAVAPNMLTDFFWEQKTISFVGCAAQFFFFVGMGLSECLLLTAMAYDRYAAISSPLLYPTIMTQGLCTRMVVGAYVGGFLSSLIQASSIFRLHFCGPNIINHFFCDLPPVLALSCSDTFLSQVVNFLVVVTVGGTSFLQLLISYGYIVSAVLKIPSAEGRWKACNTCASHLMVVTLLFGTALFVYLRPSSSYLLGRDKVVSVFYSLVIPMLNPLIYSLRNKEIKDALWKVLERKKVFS
Procedure, shortened: as §1

OR5A1 [2] = system: T7, OR5A1; remark: listed apart in the source
T7 sequence (whole entry): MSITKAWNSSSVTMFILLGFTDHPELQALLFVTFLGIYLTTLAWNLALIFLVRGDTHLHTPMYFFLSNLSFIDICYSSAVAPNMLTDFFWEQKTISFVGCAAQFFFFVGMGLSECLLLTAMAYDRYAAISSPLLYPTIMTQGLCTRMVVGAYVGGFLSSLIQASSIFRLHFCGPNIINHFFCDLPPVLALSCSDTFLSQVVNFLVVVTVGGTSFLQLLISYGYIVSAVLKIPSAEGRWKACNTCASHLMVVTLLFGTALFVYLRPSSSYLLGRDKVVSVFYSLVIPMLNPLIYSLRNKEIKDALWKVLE
Procedure, shortened: as §1

OR5A1 [3] = system: T8, OR5A1; remark: listed apart in the source
T8 sequence (whole entry): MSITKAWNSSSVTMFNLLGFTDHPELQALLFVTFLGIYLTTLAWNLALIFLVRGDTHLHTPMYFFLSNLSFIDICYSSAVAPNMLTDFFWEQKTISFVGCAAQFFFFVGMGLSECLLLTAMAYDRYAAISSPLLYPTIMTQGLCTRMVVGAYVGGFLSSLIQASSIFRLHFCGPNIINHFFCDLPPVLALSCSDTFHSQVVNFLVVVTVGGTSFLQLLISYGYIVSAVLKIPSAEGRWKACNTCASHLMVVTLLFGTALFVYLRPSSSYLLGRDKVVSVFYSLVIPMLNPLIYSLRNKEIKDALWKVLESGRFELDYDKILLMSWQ
Procedure, shortened: as §1

OR5A2 (Homo sapiens) = target: T9, OR5A2 (Homo sapiens) (UniProt Q8NGI9)
T9 sequence (whole entry): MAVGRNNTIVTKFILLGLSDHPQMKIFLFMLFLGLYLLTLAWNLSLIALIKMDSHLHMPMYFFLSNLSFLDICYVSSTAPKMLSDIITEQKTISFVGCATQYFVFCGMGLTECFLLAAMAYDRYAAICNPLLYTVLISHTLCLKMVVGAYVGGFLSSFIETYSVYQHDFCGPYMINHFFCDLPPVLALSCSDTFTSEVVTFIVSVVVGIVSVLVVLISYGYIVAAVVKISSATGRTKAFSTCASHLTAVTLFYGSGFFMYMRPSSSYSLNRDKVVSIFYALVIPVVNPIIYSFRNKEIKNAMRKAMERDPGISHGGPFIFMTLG
Procedure, shortened: as §1

OR5AK2 (Homo sapiens) = target: T10, OR5AK2 (Homo sapiens) (UniProt Q8NH90)
T10 sequence (whole entry): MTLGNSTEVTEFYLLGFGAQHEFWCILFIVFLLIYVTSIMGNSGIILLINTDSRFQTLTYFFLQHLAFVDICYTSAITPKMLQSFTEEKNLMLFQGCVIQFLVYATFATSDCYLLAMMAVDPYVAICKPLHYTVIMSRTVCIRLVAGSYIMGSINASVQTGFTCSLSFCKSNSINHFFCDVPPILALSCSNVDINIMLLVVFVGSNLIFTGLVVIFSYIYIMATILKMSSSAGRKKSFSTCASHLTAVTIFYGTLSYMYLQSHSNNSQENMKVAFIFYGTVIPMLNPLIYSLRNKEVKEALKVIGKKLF
Procedure, shortened: as §1

Measured: odorant receptor agonist call

CCC(C)=O
inactive: all assays above
